# Laboratory results taken from the supplement of paper PMC6411743.
# ± gives the standard deviation of the averaged measurements. The entries are a selection whose mix differs from that of the whole data set.
# Legend:
# Assay in all cases: NP40-soluble protein abundance relative to vehicle (solubility fold change) (ratio); higher = more soluble protein in presence of AMP-PNP
# PSMD6 = biological target: T1, PSMD6 (UniProt Q15008)
# T1 sequence (whole entry): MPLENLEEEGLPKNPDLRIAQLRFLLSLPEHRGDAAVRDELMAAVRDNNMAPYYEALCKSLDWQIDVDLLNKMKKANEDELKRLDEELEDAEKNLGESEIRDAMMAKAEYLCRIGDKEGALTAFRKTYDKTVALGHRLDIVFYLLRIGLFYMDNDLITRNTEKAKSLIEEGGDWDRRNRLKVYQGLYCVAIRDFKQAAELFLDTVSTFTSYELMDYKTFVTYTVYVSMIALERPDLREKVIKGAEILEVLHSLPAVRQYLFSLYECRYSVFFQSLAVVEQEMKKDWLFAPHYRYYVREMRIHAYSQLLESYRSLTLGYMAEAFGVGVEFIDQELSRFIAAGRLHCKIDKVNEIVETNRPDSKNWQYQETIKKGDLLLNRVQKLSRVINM
# How it was run: (§1)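 Crude Jurkat lysate, prepared by Dounce homogenisation, was exposed to eight concentrations from 0.1 to 10 mM for 10 min at room temperature and then 3 min at 37 °C. Solubilisation used 0.8% NP40 with benzonase for 60 min at 4 °C, followed by ultracentrifugation and TMT labelling of the supernatant for LC-MS/MS. After vsn normalisation of intensities, each value is the fold change against the detergent-processed vehicle within each replicate, across three independent experiments.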
# [1] = biological target: T2, UniProt Q13137 and related entries
# T2 sequence (whole entry): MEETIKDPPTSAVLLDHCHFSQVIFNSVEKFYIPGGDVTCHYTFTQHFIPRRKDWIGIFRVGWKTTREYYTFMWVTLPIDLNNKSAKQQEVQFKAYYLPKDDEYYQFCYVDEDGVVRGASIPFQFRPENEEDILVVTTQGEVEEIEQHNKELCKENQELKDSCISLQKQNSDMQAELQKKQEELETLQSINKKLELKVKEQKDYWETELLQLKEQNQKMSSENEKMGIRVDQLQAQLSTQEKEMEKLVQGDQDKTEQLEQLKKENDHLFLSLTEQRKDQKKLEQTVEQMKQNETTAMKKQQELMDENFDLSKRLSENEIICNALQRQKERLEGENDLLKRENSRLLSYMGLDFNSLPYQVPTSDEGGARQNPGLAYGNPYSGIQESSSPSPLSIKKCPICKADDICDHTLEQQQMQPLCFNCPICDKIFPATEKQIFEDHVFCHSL
# How it was run: as §1
# [2] = biological target: T3, UniProt Q13608 and related entries
# T3 sequence (whole entry): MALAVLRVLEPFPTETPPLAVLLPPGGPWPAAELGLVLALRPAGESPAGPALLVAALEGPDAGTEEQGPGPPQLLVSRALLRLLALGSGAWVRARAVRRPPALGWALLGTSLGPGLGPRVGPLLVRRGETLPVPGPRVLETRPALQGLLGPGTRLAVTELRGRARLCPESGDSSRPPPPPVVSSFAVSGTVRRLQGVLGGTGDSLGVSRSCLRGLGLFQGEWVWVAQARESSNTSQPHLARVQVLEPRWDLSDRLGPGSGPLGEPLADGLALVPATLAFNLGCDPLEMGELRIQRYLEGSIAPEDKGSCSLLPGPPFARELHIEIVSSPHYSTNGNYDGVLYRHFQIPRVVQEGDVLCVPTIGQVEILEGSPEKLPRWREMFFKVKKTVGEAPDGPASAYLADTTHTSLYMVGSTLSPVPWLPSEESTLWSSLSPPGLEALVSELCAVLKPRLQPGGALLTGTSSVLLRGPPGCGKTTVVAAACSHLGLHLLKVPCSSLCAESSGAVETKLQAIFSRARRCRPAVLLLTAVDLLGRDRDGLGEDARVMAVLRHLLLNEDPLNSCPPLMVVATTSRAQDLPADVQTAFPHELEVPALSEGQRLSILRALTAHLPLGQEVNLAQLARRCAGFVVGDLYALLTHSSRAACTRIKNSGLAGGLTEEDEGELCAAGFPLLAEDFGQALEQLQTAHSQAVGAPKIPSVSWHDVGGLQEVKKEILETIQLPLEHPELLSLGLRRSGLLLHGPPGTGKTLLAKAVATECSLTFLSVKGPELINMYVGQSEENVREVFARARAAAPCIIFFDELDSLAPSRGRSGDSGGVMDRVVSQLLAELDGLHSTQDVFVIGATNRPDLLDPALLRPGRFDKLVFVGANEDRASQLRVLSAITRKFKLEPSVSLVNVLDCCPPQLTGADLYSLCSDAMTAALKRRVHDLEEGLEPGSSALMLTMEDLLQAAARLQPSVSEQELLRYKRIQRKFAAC
# How it was run: as §1
# [3] = biological target: T4, UniProt Q14697 and related entries
# T4 sequence (whole entry): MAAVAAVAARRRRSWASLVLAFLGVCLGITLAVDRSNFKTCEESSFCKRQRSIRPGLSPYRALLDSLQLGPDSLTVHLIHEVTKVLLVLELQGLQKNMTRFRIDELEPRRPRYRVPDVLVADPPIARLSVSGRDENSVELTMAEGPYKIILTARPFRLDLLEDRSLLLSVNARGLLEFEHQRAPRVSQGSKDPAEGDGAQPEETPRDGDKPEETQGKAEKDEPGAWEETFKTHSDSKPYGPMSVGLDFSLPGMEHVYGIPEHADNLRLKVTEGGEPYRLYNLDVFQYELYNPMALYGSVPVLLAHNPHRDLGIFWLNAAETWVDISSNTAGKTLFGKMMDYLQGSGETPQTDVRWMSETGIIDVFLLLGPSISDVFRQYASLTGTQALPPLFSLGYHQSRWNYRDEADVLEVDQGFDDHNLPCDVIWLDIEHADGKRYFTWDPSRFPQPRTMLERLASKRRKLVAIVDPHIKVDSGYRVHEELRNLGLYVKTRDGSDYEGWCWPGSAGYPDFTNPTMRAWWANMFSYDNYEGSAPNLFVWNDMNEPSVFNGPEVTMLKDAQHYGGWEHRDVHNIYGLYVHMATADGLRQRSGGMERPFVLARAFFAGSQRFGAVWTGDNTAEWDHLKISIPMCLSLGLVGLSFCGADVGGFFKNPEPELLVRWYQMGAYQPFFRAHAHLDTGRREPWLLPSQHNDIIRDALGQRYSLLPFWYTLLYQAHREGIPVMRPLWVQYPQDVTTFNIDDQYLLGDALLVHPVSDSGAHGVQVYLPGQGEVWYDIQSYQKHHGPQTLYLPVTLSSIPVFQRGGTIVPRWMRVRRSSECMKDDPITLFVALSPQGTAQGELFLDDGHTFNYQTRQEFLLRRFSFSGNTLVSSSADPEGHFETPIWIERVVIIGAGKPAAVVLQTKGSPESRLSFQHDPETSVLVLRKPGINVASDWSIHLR
# How it was run: as §1
# [4] = biological target: T5, UniProt Q147X3 and related entries
# T5 sequence (whole entry): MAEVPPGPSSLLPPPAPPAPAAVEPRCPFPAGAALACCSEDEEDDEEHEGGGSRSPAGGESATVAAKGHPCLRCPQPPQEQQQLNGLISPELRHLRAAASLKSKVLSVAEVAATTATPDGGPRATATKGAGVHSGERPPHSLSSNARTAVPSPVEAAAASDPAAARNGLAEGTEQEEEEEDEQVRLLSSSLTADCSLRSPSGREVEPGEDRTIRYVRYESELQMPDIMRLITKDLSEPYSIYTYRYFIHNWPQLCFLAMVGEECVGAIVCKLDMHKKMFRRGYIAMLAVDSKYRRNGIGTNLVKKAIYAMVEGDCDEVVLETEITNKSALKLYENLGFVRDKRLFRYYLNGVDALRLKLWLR
# How it was run: as §1
# [5] = biological target: T6, UniProt Q14807 and related entries
# T6 sequence (whole entry): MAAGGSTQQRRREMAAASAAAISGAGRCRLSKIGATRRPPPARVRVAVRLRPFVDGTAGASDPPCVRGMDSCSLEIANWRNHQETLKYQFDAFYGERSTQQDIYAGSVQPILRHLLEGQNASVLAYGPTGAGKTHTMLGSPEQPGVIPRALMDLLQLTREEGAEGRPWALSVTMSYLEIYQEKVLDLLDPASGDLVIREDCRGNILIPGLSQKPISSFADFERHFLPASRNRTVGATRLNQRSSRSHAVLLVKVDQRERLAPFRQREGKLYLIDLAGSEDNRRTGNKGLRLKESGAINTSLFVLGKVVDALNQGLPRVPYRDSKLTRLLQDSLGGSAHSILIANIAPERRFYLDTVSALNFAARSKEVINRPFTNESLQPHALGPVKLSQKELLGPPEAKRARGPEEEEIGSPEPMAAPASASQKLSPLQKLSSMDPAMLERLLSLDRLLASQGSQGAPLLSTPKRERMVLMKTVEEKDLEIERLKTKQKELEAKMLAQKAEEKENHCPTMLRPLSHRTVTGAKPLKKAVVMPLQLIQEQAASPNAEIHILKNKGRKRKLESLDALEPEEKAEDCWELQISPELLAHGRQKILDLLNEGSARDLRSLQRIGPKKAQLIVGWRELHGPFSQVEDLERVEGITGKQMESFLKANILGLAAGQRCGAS
# How it was run: as §1
structure (smiles),measurement,setting,value
Nc1ncnc2c1ncn2[C@@H]1O[C@H](COP(=O)(O)OP(=O)(O)NP(=O)(O)O)[C@@H](O)[C@H]1O [adenylyl imidodiphosphate],NP40-soluble protein abundance,PSMD6; concentration: 6mM,0.914 ± 0.11
same,NP40-soluble protein abundance,PSMD6; concentration: 8mM,0.928 ± 0.098
same,NP40-soluble protein abundance,PSMD6; concentration: 10mM,0.916 ± 0.12
same,NP40-soluble protein abundance,[1]; concentration: 1mM,1.03 ± 0.019
same,NP40-soluble protein abundance,[1]; concentration: 2mM,1.05 ± 0.016
same,NP40-soluble protein abundance,[1]; concentration: 4mM,1.01 ± 0.033
same,NP40-soluble protein abundance,[1]; concentration: 6mM,0.967 ± 0.079
same,NP40-soluble protein abundance,[1]; concentration: 8mM,0.948 ± 0.028
same,NP40-soluble protein abundance,[1]; concentration: 10mM,0.963 ± 0.04
same,NP40-soluble protein abundance,[2]; concentration: 1mM,1.1 ± 0.023
same,NP40-soluble protein abundance,[2]; concentration: 2mM,1.08 ± 0.059
same,NP40-soluble protein abundance,[2]; concentration: 4mM,1.12 ± 0.06
same,NP40-soluble protein abundance,[2]; concentration: 6mM,1.08 ± 0.093
same,NP40-soluble protein abundance,[2]; concentration: 8mM,1.06 ± 0.075
same,NP40-soluble protein abundance,[2]; concentration: 10mM,1.1 ± 0.069
same,NP40-soluble protein abundance,[3]; concentration: 1mM,0.919 ± 0.025
same,NP40-soluble protein abundance,[3]; concentration: 2mM,0.889 ± 0.066
same,NP40-soluble protein abundance,[3]; concentration: 4mM,0.936 ± 0.021
same,NP40-soluble protein abundance,[3]; concentration: 6mM,0.962 ± 0.054
same,NP40-soluble protein abundance,[3]; concentration: 8mM,0.972 ± 0.052
same,NP40-soluble protein abundance,[3]; concentration: 10mM,0.935 ± 0.02
same,NP40-soluble protein abundance,[4]; concentration: 1mM,0.992 ± 0.016
same,NP40-soluble protein abundance,[4]; concentration: 2mM,0.971 ± 0.025
same,NP40-soluble protein abundance,[4]; concentration: 4mM,1.01 ± 0.059
same,NP40-soluble protein abundance,[4]; concentration: 6mM,1.03 ± 0.046
same,NP40-soluble protein abundance,[4]; concentration: 8mM,0.99 ± 0.023
same,NP40-soluble protein abundance,[4]; concentration: 10mM,1 ± 0.025
same,NP40-soluble protein abundance,[5]; concentration: 1mM,1.07 ± 0.029
same,NP40-soluble protein abundance,[5]; concentration: 2mM,1.07 ± 0.02
same,NP40-soluble protein abundance,[5]; concentration: 4mM,1.16 ± 0.046
same,NP40-soluble protein abundance,[5]; concentration: 6mM,1.2 ± 0.032
same,NP40-soluble protein abundance,[5]; concentration: 8mM,1.23 ± 0.079
same,NP40-soluble protein abundance,[5]; concentration: 10mM,1.26 ± 0.082

# Shown as tab-separated lines: entries from further up.
structure (smiles)	measurement	setting	value
Nc1ncnc2c1ncn2[C@@H]1O[C@H](COP(=O)(O)OP(=O)(O)NP(=O)(O)O)[C@@H](O)[C@H]1O [adenylyl imidodiphosphate]	NP40-soluble protein abundance	[4]; concentration: 4mM	1.01 ± 0.059
same	NP40-soluble protein abundance	[4]; concentration: 6mM	1.03 ± 0.046
